This test concerns the target Escherichia coli D-galactonate/H+ symporter D-galactonate transporter (DgoT), wild type (E. coli) (UniProt P0AA76). Description: SEC; TSK 3000 column, purified detergent-solubilised DgoT; SEC buffer in the methods: 10 mM HEPES pH 7, 150 mM NaCl, 10% glycerol, 0.5 mM TCEP, 0.2% beta-NG; both purified.

No constants are given. Whether binding was seen depends on the method and setting.

The text below walks through data of article PMC6532931, “Structures suggest a mechanism for energy coupling by a family of organic anion transporters” (PLoS Biology, 2019).

B1: Escherichia coli D-galactonate/H+ symporter D-galactonate transporter (DgoT), wild type (protein, UniProt P0AA76 1-430)
chain: MDIPVNAAKPGRRRYLTLVMIFITVVICYVDRANLAVASAHIQEEFGITKAEMGYVFSAFAWLYTLCQIPGGWFLDRVGSRVTYFIAIFGWSVATLFQGFATGLMSLIGLRAITGIFEAPAFPTNNRMVTSWFPEHERASAVGFYTSGQFVGLAFLTPLLIWIQEMLSWHWVFIVTGGIGIIWSLIWFKVYQPPRLTKGISKAELDYIRDGGGLVDGDAPVKKEARQPLTAKDWKLVFHRKLIGVYLGQFAVASTLWFFLTWFPNYLTQEKGITALKAGFMTTVPFLAAFVGVLLSGWVADLLVRKGFSLGFARKTPIICGLLISTCIMGANYTNDPMMIMCLMALAFFGNGFASITWSLVSSLAPMRLIGLTGGVFNFAGGLGGITVPLVVGYLAQGYGFAPALVYISAVALIGALSYILLVGDVKRVG
In the case of B1, the binding entry was “no binding”.
